Results reported in PubChem BioAssay AID1671190 (National Center for Advancing Translational Sciences (NCATS), 2021).
Out of some 580,000 compounds screened, about 6,100 (1.1%) were called active. Inconclusive results, whose numbers are uncertain, are shown with a selection of clear calls. The call rests on the fitted dose curve; in most records, active means well fitted inhibition curve with a large enough effect; inconclusive means small, poorly fitted or top-dose-only effect, or another doubt; inactive means no such curve, though single readings can be large or run the other way. Where the call is inconclusive, the potency comes from a doubtful curve fit.

Amino acid sequences for entries named in this document (tags omitted).
UniProt P18054, whole entry, looked up: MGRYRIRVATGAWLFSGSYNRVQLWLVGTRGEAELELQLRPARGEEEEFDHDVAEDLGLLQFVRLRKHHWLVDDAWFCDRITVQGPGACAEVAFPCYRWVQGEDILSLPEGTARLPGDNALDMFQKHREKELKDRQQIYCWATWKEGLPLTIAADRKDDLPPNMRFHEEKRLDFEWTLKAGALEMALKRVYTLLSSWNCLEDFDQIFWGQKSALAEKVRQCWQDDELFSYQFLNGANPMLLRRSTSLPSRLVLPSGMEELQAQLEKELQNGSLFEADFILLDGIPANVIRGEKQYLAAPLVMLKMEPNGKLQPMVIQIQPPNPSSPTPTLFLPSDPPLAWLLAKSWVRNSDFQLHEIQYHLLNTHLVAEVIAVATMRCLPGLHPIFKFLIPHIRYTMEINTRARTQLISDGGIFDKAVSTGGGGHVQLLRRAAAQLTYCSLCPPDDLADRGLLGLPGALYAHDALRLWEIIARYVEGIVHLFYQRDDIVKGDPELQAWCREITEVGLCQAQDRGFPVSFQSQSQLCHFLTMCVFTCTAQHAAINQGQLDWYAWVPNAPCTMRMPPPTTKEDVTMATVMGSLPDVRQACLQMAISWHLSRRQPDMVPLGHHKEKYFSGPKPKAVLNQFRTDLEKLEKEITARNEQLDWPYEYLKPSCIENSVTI

target: Polyunsaturated fatty acid lipoxygenase ALOX12 (Homo sapiens) (UniProt P18054); test: Primary qHTS assay for inhibitors of human arachidonate 12S-lipoxygenase (ALOX12): Round 2; conditions: purified 12hLO, xylenol orange hydroperoxide absorbance; activity change, negative = inhibition: at 108 µM (top of the series) unless noted
Method in brief: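 Hydroperoxide product was detected by ferrous iron/xylenol orange as the 573 to 405 nm absorbance ratio. Arachidonic acid at 40 uM (final) was turned over for 30 min at room temperature by 150 nM human 12hLO, pH 7.0 Hepes buffer, after 15 min compound preincubation.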
On the % scale 0 is the no-effect control and ±100 the full control effect; potency means the concentration at half of the fitted maximal effect.

SMILES	activity change, negative = inhibition	Potency
CC1(C)CC(=O)C(C=NCCN2CCN(C(=S)NC3CCCCC3)CC2)=C(O)C1	inactive: 2.3%	
COC(=O)CCC(=O)OC1(C)C(=O)C2=CN(Cc3ccccc3)C(c3ccc(OC)cc3)=CC2=C(Br)C1=O (centres undefined)		inconclusive: 44.7 µM [inhibitor, partial curve, poor fit]
CCn1c(SCC(=O)Nc2sc(C)c(C)c2C#N)nnc1C(C)C	inactive: 0%	
Cc1cc(C)c(S(=O)(=O)Nc2cccc3nsnc23)c(C)c1		inconclusive: 89.1 µM [inhibitor, single point]
COc1ccc(OCCCOc2ccc(Cl)cc2/C=N/NC(N)=O)cc1	inactive: -64.5%	
COc1ccc2cc(Br)ccc2c1CC(=O)NC1CC(C)(C)NC(C)(C)C1		inconclusive: 2 µM [inhibitor, single point]
CCOc1ccc(C2C(C(=O)Nc3ccccc3)=C(C)N=c3s/c(=C/c4cccc(OCC(=O)O)c4)c(=O)n32)cc1 (centres undefined)		inconclusive: 44.7 µM [inhibitor, partial curve, poor fit]
O=C(CSc1ccc(-c2cccnc2)nn1)N1CCCc2ccccc21	inactive: -4.16%	
CC(=O)Nc1ccc(SCC(=O)c2cc(C)n(-c3ccccc3F)c2C)cc1	inactive: -14%	
Cc1noc(C(C)C)c1C(=O)Nc1ccc(OC(F)F)c(Cl)c1		inconclusive: 50.1 µM [inhibitor, partial curve, poor fit]
O=C(CNC(=O)c1ccc(Br)o1)Nc1ccc(N2CCCCCC2)cc1		inconclusive: 50.1 µM [inhibitor, partial curve, poor fit]
O=C(Nc1ccccc1)Nc1ccc(=O)n2c1[C@@H]1C[C@@H](CN(S(=O)(=O)c3ccccc3)C1)C2		inconclusive: 63.1 µM [inhibitor, partial curve, poor fit]
O=C1COc2ccc(-c3ccoc3)nc2CN1CCOc1ccccc1		inconclusive: 50.1 µM [inhibitor, partial curve]
CCc1nc2ccc(C(=O)NC3CCN(Cc4ccccc4)CC3)cn2c1N(C)Cc1cc2ccccc2s1		inconclusive: 100 µM [inhibitor, single point]
Nc1nccc(N2C[C@H]3CN(C(=O)C4CCC4)C[C@@]3(C(=O)O)C2)n1	inactive: -3.46%	
Cc1noc(-c2ccc3c(c2)OCO3)c1C(=O)NCc1cccc(Cl)c1		inconclusive: 7.94 µM [inhibitor, partial curve, poor fit]
CCC(Oc1ccccc1)C(=O)Nc1cccc(OCc2cc(=O)n3cccc(C)c3n2)c1 (centres undefined)	inconclusive: -40.1% [inhibitor]	
Cc1ccc(S(=O)(=O)NNC(=O)c2sccc2-n2cccc2)cc1		active: 31.6 µM
O=C(CCCc1nc2ccccc2s1)NC1CCSc2c(F)cccc21 (centres undefined)	inactive: 8.84%	
CCCCNC(=O)c1cc2ccc(OC)cc2nc1C	inactive: -21.8%	
COc1ccc(-c2nc(NC(C)=O)sc2-c2ccc(OC)cc2)cc1	inactive: 10.8%	
CCCCn1c(N)c(N(Cc2ccccc2OC)C(=O)CSCC(=O)Nc2ccc(C)cc2)c(=O)[nH]c1=O		inconclusive: 50.1 µM [inhibitor, single point]

SMILES	activity change, negative = inhibition	Potency
NS(=O)(=O)c1cc(C(=O)OCC(=O)Nc2ccccc2[N+](=O)[O-])ccc1Cl	inactive: -10.4%	
CCc1ccc(C(=O)c2sc(Nc3ccc(OC)cc3)c(C(N)=O)c2N)cc1		inconclusive: 7.94 µM [inhibitor, full curve, poor fit]
CCc1nc2c(c(-c3ccc(Cl)cc3)n1)CN(C(=O)c1ccccc1F)CC2		inconclusive: 28.2 µM [inhibitor, partial curve]
CCC(=O)Nc1ccc(C(=O)CSc2nnc(-c3ccccc3F)n2C2CC2)cc1	inactive: -10.5%	
O=C(c1cccs1)N1CCC2(CC1)CN(Cc1ccccc1)CC2CO (centres undefined)	inactive: 26.9%	
COc1ccccc1CNc1nc(NCc2cccc(OC)c2OC)c2sccc2n1		inconclusive: 100 µM [inhibitor, partial curve, poor fit]
Cc1ccc(NC(=S)NCc2ccc3c(c2)cc(C)n3C)c(C)c1		active: 35.5 µM
CCC1CCc2nc3sc(C(=O)Nc4cccc(F)c4)c(N)c3cc2C1 (centres undefined)	inactive: -13.4%	
CCN(CC)c1ccc(NC(=O)CSc2n[nH]c(-c3ccco3)n2)cc1		inconclusive: 7.08 µM [inhibitor, full curve, poor fit]
COCCNC(=S)Nc1ccc2nc(N3CCCC3)cc(C)c2c1	inactive: 11.9%	
COc1ccc(CNC(=O)Cn2c(=O)oc3ccccc32)cc1OC	inactive: 442%	
O=C1Nc2ccccc2C2(CCN(C(=O)c3ccccc3F)C2)O1 (centres undefined)		inconclusive: 31.6 µM [inhibitor, single point]
Fc1ccc(Cn2cc(C(=S)N3CCOCC3)c3ccccc32)cc1		inconclusive: 39.8 µM [inhibitor, partial curve, poor fit]
COc1ccc(N(Cc2cc3cccc(C)c3[nH]c2=O)S(C)(=O)=O)cc1		inconclusive: 141 µM [inhibitor, partial curve, poor fit]
CC(C)CC1C(=O)N(Cc2cn(CCC3OCCCO3)nn2)CCS(=O)(=O)N1Cc1ccc(-c2ccccc2)cc1 (centres undefined)	inactive: 0%	
CCCCOc1cccc(C(=O)NC(=S)Nc2cccc(NC(=O)c3ccccc3Cl)c2)c1		active: 11.2 µM
Cc1cc(Br)ccc1NC(=O)CN(C)C(=O)c1ccc(-n2cncn2)c([N+](=O)[O-])c1		inconclusive: 79.4 µM [inhibitor, partial curve, poor fit]
O=C(Nc1ccc(S(=O)(=O)C(F)F)cc1)c1ccc2c(=O)n3c(nc2c1)CCC3	inactive: -20.6%	
O=C(NCc1cccnc1)C1CCN(C(=O)c2cccc(C(F)(F)F)c2)CC1	inactive: -11.5%	
CC(C)CN(C(=O)COC(=O)c1ccc2c(c1)NC(=O)CS2)C1CCS(=O)(=O)C1 (centres undefined)		inconclusive: 89.1 µM [inhibitor, single point]
CC(=O)N1c2ccc(S(=O)(=O)N3CCC(C(=O)Nc4cccc(Cl)c4C)CC3)cc2CC1C (centres undefined)	inactive: -13.5%	
c1ccc(-c2onc(-c3ccco3)c2-c2ccc3c(c2)OCO3)cc1		inconclusive: 35.5 µM [inhibitor, partial curve, poor fit]

Ten entries from above, set out differently:
SMILES,"activity change, negative = inhibition",Potency
COc1ccc(CNC(=O)Cn2c(=O)oc3ccccc32)cc1OC,inactive: 442%,
O=C1Nc2ccccc2C2(CCN(C(=O)c3ccccc3F)C2)O1 (centres undefined),,"inconclusive: 31.6 µM [inhibitor, single point]"
Fc1ccc(Cn2cc(C(=S)N3CCOCC3)c3ccccc32)cc1,,"inconclusive: 39.8 µM [inhibitor, partial curve, poor fit]"
COc1ccc(N(Cc2cc3cccc(C)c3[nH]c2=O)S(C)(=O)=O)cc1,,"inconclusive: 141 µM [inhibitor, partial curve, poor fit]"
CC(C)CC1C(=O)N(Cc2cn(CCC3OCCCO3)nn2)CCS(=O)(=O)N1Cc1ccc(-c2ccccc2)cc1 (centres undefined),inactive: 0%,
CCCCOc1cccc(C(=O)NC(=S)Nc2cccc(NC(=O)c3ccccc3Cl)c2)c1,,active: 11.2 µM
Cc1cc(Br)ccc1NC(=O)CN(C)C(=O)c1ccc(-n2cncn2)c([N+](=O)[O-])c1,,"inconclusive: 79.4 µM [inhibitor, partial curve, poor fit]"
O=C(Nc1ccc(S(=O)(=O)C(F)F)cc1)c1ccc2c(=O)n3c(nc2c1)CCC3,inactive: -20.6%,
O=C(NCc1cccnc1)C1CCN(C(=O)c2cccc(C(F)(F)F)c2)CC1,inactive: -11.5%,
CC(C)CN(C(=O)COC(=O)c1ccc2c(c1)NC(=O)CS2)C1CCS(=O)(=O)C1 (centres undefined),,"inconclusive: 89.1 µM [inhibitor, single point]"
